Data published in patent EP0291696A2, “Process of multiplication of epithelial cells” (Battelle-Institut e.V., priority 1987, dated 1988).
Like-named read-outs stand apart in the source and are kept apart here. At least one compound was matched to its structure with a doubt left.

What was measured:
humaner Epithelialzellen = assay: Growth of cultivated human epithelial cells, dose dependence (summary); format: cell-based; conditions: compared with Cholera Toxin 10⁻⁹M
Keratinozyten = format: cell-based, human; conditions: after 10 days, compared with Cholera Toxin 10⁻⁹M

C=C[C@@]1(C)CC(=O)[C@]2(O)[C@@]3(C)[C@@H](O)CCC(C)(C)[C@@H]3[C@H](O)[C@H](OC(C)=O)[C@@]2(C)O1 [Forskolin]
Zellwachstum (humaner Epithelialzellen; Forskolin 10⁻⁶M): noch größer als mit Cholera Toxin | Zellwachstum (humaner Epithelialzellen; Forskolin 10⁻⁷M): entspricht in etwa der Cholera Toxin-Wirkung | Größe der Keratinozytenkolonien (Keratinozyten; Forskolin 10⁻⁵ M - 10⁻⁶M): deutliche Steigerung der Größe | Größe der Keratinozytenkolonien (Keratinozyten; Forskolin 10⁻⁷M): gleichen Resultate wie bei Zugabe von Cholera Toxin | Größe der Keratinozytenkolonien (Keratinozyten; Forskolin 10⁻⁸M): deutlich schlechter als Cholera Toxin
